Data source: PubChem BioAssay AID1259425 (University of Nebraska Medical Center, 2018)

Aim: 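Find knockdowns that reproduce the gene expression pattern seen when KSR1 is lost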 (primary screen)
System: HCT116 human colon cancer cells
Knock-down reagent: siRNA pool against human genes, 50 nM siRNA
Measured: 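mRNA of six signature genes measured together by branched-DNA assay after 50 nM siRNA pool, blank removed, divided by geometric mean of two housekeeping genes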
Reading the numbers: BNIP3L mRNA: higher = more BNIP3L transcript after knockdown
The deposit covers about 14,000 reagents; below is an unselected part. Not all columns of the deposit are shown. Reagent sequences are not shown. The record does not give: the time to read-out.

gene | BNIP3L mRNA, set 1
PCOLCE2 | 0.214
ARB2A | 0.231
GSG1 | 0.186
RABEP2 | 0.124
P2RY1 | 0.115
AGT | 0.044
ZNF43 | 0.0834
PLK3 | 0.102
SPMAP2 | 0.0953
SLC9A7 | 0.11
LITAF | 0.0308
CEL | 0.0453
ANGPTL4 | 0.0559
WNK3 | 0.083
FAT1 | 0.0731
VAMP8 | 0.13
DOCK7 | 0.0858
ME2 | 0.125
NT5E | 0.0815
HMGXB4 | 0.0684
ATP2A1 | 0.0909
CPE | 0.101
IQGAP1 | 0.195
TRAPPC6A | 0.174
SYT5 | 0.207
ANAPC11 | 0.153

Look-ups from the list:
ARB2A, BNIP3L mRNA, set 1 = 0.231
Result of CPE under “BNIP3L mRNA, set 1”: 0.101
For “BNIP3L mRNA, set 1”, WNK3 reads 0.083
Under “BNIP3L mRNA, set 1”, SPMAP2 has 0.0953
Result for ZNF43 under “BNIP3L mRNA, set 1”: 0.0834
Result for SYT5 under “BNIP3L mRNA, set 1”: 0.207

Additional entries follow.
gene | BNIP3L mRNA, set 1
MRGPRX1 | 0.258
TAF12 | 0.151
CBS | 0.185
EIF2B1 | 0.22
TP53TG1 | 0.0816
IFIT3 | 0.0988
APEX2 | 0.239
RAVER2 | 0.137
ACTR1B | 0.0781
CORO6 | 0.19
FOXO4 | 0.172
PIGB | 0.227
HLA-DPA1 | 0.0579
SMC4 | 0.116
MRC2 | 0.143
AP1S1 | 0.055
OR3A1 | 0.0965
SDHC | 0.072
DLEC1 | 0.133
UCP2 | 0.173
KRTAP4-4 | 0.123
PPP1R9A | 0.0592
CDH16 | 0.129
B3GALNT2 | 0.18
